{"source": "paper PMC11348030", "about": "“mTORC1 phosphorylates and stabilizes LST2 to negatively regulate EGFR” (Proceedings of the National Academy of Sciences of the …, 2024)", "binders": {"B1": {"name": "full-length LST2 (lateral signal target 2 homolog), wild type (protein, UniProt Q9HCC9 1-887)", "chain": "MMNRFRKWLYKPKRSDPQLLARFYYADEELNQVAAELDSLDGRKDPQRCTLLVSQFRSCQDNVLNIINQIMDECIPQDRAPRDFCVKFPEEIRHDNLAGQLWFGAECLAAGSIIMNRELESMAMRPLAKELTRSLEDVRGALRDQALRDLNTYTEKMREALRHFDVLFAEFELSYVSAMVPVKSPREYYVQQEVIVLFCETVERALDFGYLTQDMIDDYEPALMFSIPRLAIVCGLVVYADGPLNLDRKVEDMSELFRPFHTLLRKIRDLLQTLTEEELHTLERNLCISQDVEFPIRADVQGPAALAPALSAPLPPEGPLSAKAKDPDAELACSMQYDDQELEQLSRMVHRAGDEMSSLLSPPIACQSPAHRPGAEGSPGGEASPGRPRLRSGSDEEERVFFMDDVEGTAEALARPESPAGPFGWAGSTWADPQEKGQGGPGGAAGISLPASEKEEDLSNNNLEAEGTDGASLAGTSSCSCLDSRLHLDGWEVGADDAETAEMIAHRTGGMKLSATVIFNPKSPTSLDSAVATQEAASEPVAEGMDGGPHKLSTGATNCLLHSCVCCGSCGDSREDVVERLREKCSPGGVIGASYAAGLAKASDRAPERQEEAPPPSEDASNGREPKAPTSDKCLPHTSGSQVDTASGLQGEAGVAGQQEPEARELHAGSPSAHEAPQALSGSSSSTAGSCSSDKMGPEAAPAATHAAPQATREKIRSRFHGSHDLIHRLFVCISGVADQLQTNYASDLRSILKTLFEVMATKPETDDKEKLRKVTQTLRSAALEDCALCQETLSSSELAAKTRDGDFEDPPEWVPDEACGFCTACKAPFTVIRRKHHCRSCGKIFCSRCSSHSAPLPRYGQVKPVRVCTHCYMFHVTPFYSDKAGL"}}, "key": {"[1]": {"biological_target": "T1, regulatory-associated protein of mTOR (RAPTOR) (UniProt Q8N122 1-1335)", "T1 construct": "RAPTOR, regulatory-associated protein of mTOR; purified protein; Construct, host and tags are in SI Appendix, Material and Methods; In the cryo-EM rows RAPTOR stood as a subunit of mTORC1; source: purified", "assay": "fluorescence polarisation; fluorescence anisotropy, competition: unlabeled TOS peptide against FITC-labeled peptide for RAPTOR; both purified"}, "[2]": {"biological_target": "T1, regulatory-associated protein of mTOR …", "assay": "cryo-EM structure; single-particle analysis of mTORC1 in complex with the synthetic LST2 TOS peptide; 3.27 Å for the TOS-binding RAPTOR region; both purified"}, "[3]": {"biological_target": "T1, regulatory-associated protein of mTOR …", "assay": "cryo-EM structure; single-particle analysis of mTORC1 in complex with full-length LST2; overall refinement 4.02 Å; both purified"}, "[4]": {"biological_target": "T1, regulatory-associated protein of mTOR …", "assay": "co-IP; coimmunoprecipitation with purified RAPTOR and purified full-length LST2 (WT or F401A); blot quantified, N = 3; both purified"}, "[5]": {"biological_target": "T1, regulatory-associated protein of mTOR …", "assay": "fluorescence polarisation; fluorescence anisotropy; purified RAPTOR with N-terminally FITC-labeled synthetic LST2 TOS peptides; N = 3; both purified"}}, "note": "Results are given in words; binding and its absence hold for the method and conditions named. Some results given as binding are weak or reduced against the parent protein; the word gives no strength."}
{"binder": "DEEERVFFMDDVE (peptide, UniProt Q9HCC9 395-407, FITC on the N-terminus)", "note": "[FITC-labeled LST2 TOS peptide including flanking residues (amino acids 395 to 407)]", "values": [{"measurement": "binding", "setting": "[1]", "result": "binds"}]}
{"binder": "DEEERVFFMDDVE (peptide, UniProt Q9HCC9 395-407)", "note": "[unlabeled LST2 TOS peptide]", "values": [{"measurement": "binding", "setting": "[1]", "result": "binds"}, {"measurement": "binding", "setting": "[2]", "result": "binds"}]}
{"binder": "B1", "values": [{"measurement": "binding", "setting": "[3]", "result": "binds"}, {"measurement": "binding", "setting": "[4]", "result": "binds"}]}
{"binder": "DEEERVAFMDDVE (peptide, UniProt Q9HCC9 395-407, FITC on the N-terminus)", "note": "[FITC-labeled LST2 TOS peptide F401A]", "values": [{"measurement": "binding", "setting": "[5]", "result": "no binding"}]}
